In test [1] the target is T1, SpoIIE (bacterial two-hybrid fusion) (Bacillus subtilis) (UniProt P37475).
T1 sequence: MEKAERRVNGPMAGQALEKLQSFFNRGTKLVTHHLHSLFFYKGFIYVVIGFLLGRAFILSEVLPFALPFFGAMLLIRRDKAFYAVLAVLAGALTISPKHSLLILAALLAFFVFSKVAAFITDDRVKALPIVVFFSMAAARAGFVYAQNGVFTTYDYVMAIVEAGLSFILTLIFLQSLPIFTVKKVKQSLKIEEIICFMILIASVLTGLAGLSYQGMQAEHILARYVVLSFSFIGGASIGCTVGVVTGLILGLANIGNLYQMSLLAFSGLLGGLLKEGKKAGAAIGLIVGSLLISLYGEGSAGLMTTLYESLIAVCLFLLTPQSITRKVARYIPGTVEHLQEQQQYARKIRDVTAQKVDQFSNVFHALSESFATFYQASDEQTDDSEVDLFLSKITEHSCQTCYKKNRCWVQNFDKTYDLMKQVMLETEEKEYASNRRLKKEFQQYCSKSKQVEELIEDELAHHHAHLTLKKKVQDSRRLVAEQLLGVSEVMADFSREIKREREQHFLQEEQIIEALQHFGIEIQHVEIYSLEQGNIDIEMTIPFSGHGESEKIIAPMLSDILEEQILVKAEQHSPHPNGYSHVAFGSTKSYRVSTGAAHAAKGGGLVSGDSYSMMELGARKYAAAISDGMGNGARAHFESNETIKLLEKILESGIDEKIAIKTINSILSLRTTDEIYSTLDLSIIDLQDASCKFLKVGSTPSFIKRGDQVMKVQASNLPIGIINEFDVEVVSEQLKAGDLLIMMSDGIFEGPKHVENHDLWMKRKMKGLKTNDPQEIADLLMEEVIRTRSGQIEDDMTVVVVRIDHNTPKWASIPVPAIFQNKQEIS
The experiment in a line: two-hybrid; bacterial two-hybrid (BACTH): fusions to adenylate cyclase fragments T18 and T25 co-transformed into E. coli BTH101 (Δcya); spotted on LB plates with X-Gal and 0.5 mM IPTG, 24-48 h at 30 °C; blue colour and β-galactosidase activity (Miller units).

The target in test [2] is T2, His-tagged GpsB (Bacillus subtilis) (UniProt P0CI74).
T2 sequence: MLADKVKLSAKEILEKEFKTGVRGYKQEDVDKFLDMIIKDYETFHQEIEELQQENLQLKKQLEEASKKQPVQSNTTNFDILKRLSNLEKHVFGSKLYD
The experiment in a line: pull-down; His-GpsB held on a 1 mL Ni Sepharose HP column from E. coli BL21 (DE3) lysate (20 mM Tris-HCl pH 8.0, 150 mM NaCl); eluted with 1 M imidazole; cyt-SpoIIE-S detected by Western blot with an anti-S-tag antibody. A general note: A western blot detects proteins with antibodies after separation by electrophoresis.

No constants are given. Whether binding was seen depends on the method and setting. For some assays here: In cells and extracts the contact can be indirect. Some results given as binding are weak or reduced against the parent protein; the word gives no strength. Where a sequence is shown, tags or fusion partners need not be part of it.

B1: GpsB (bacterial two-hybrid fusion) (protein, UniProt P0CI74 1-98)
chain: MLADKVKLSAKEILEKEFKTGVRGYKQEDVDKFLDMIIKDYETFHQEIEELQQENLQLKKQLEEASKKQPVQSNTTNFDILKRLSNLEKHVFGSKLYD
Regarding B1, the binding entry in test [1] was “binds”.

B2: cyt-SpoIIE-S (SpoIIE-S domain II+III) (domain or fragment, UniProt P37475 332-827)
chain: IPGTVEHLQEQQQYARKIRDVTAQKVDQFSNVFHALSESFATFYQASDEQTDDSEVDLFLSKITEHSCQTCYKKNRCWVQNFDKTYDLMKQVMLETEEKEYASNRRLKKEFQQYCSKSKQVEELIEDELAHHHAHLTLKKKVQDSRRLVAEQLLGVSEVMADFSREIKREREQHFLQEEQIIEALQHFGIEIQHVEIYSLEQGNIDIEMTIPFSGHGESEKIIAPMLSDILEEQILVKAEQHSPHPNGYSHVAFGSTKSYRVSTGAAHAAKGGGLVSGDSYSMMELGARKYAAAISDGMGNGARAHFESNETIKLLEKILESGIDEKIAIKTINSILSLRTTDEIYSTLDLSIIDLQDASCKFLKVGSTPSFIKRGDQVMKVQASNLPIGIINEFDVEVVSEQLKAGDLLIMMSDGIFEGPKHVENHDLWMKRKMKGLKTNDPQEIADLLMEEVIRTRSGQIEDDMTVVVVRIDHNTPKWASIPVPAIFQNKQEIS
With B2, the binding entry in test [2] is reported as “binds”.

B3: PBP1 (bacterial two-hybrid fusion) (protein, UniProt P39793 1-914)
chain: MSDQFNSREARRKANSKSSPSPKKGKKRKKGGLFKKTLFTLLILFVLGVVGGAVTFAVMVSDAPSLDESKLKTPYSSTIYDKNGKEIAEVGAEKRTYVSIDEIPDVVKEAFIATEDARFYEHHGIDPVRIGGALVANFKDGFGAEGGSTITQQVVKNSLLSHQKTLKRKVQEVWLSIQLERNYSKDEILEMYLNRIYFSPRAYGIGKAAEEFFGVTDLSKLTVEQAATLAGMPQSPTAYNPVKNPDKAEKRRNIVLSLMKKQGFISDSQYNKAKKVAVKDEGVVSQKEYEKASTNKYSAFVEEVMKEIDEKSDVDPSADGLKIYTTLDTKAQDKLDELMDGDTVGFTEGMQGGVTLLDTKNGEVRAIGAGRNQPVGGFNYATQTKAQPGSTIKPILDYGPVIENKKWSTYEQIDDSAYTYSNGKPIRDWDRKYLGPISMRYALAQSRNIPALKAFQAVGKDTAVDFANGLGLGLTKDNVTEAYSIGGFGGNDGVSPLTMAGAYSAFGNNGTYNEPHFVKSIEFNDGTKLDLTPKSKSAMSDYTAFMITDMLKTAVKTGTGQLAQVPGVEVAGKTGTTNFDDNEVKRYNIASGGARDSWFVGYTPQYTAAVWTGMGENEAGKKSLSAEEQKVAKRIFAQLIADVDDGSGSFEKPDSVVEATVEKGSNPAKLAGPNTPSDKKLTEYFVKGTAPSTVSKTYEKEEKEETAKLSGLNVKYDKDNQSLTLSWNYDGDATFAVKQSVDGGSYSEIQNSSAKEAVISGVQPGSVYKFEVTAVSDDGKSTASTSYEVPKAEDDEDKKDQQQTDDEKQDDEKTQDDTQTDDSQKDDGQTDQDQTDDSTNDQDKKQDNTNTNPSDNNNQDQSNDNDNDNSNNQDTSDGDSNSGKNDSTGSDTNKNKTDTSNKTQTNSSSIEKTN
B3: the binding entry in test [1] was “binds”.

B4: PBP4b (bacterial two-hybrid fusion) (protein, UniProt O32032 1-584)
chain: MKISKRMKLAVIAFLIVFFLLLLRLAEIQLFFTESFSKKKINLIQESVKQRTEEVLISDGRGSFLDRNGRALTGQSEPAVVLFPFLLTQDWPIKKVADILGMSEDDLRQTLGQAKKPVILQQKKIKTLSKQSITKINSLKYPGIYGVYMENEDKPSLASHTIGSTNQDPALLRKKYPDKESLPITTEIGTTGLERTFDEFLLPEQDTKLLYHVDGKGNPLFGMDVKYTAEANTFYPLQIKTTIDQSIQKAMEEVLDEQGLKKGGAVLLDIENSSVLGIVSKPDADVSRQNTLQNYMLTPIYPGSVFKTVIAAAAIENNMVKPSQTFNCNLNLYGEPGDDKGTLSFDESFAQSCNYTFTSLAEQLMKKDSSVIEDMSEKLALTDRAGWEGKLYHETDFRQLYNEKSGVIWGDEKDKSVKKAIAQTAIGQKNVKVTPLEVANMMATIARGGEKRQVKIAEQIEYKNGTTLVTFKDQKLKGETIDKYTSQQLQKILRRVVESPSGTGRRFQDLPYTVAGKSGTAQTGKLSKEKETLYEKWFAGYFPADKPKYALVVLHMDTPGDKALTNSVFYDIVKKVHEIEINQK
Turning to B4, the binding result in test [1] is “binds”.

B5: EzrA (bacterial two-hybrid fusion) (protein, UniProt O34894 1-562)
chain: MEFVIGLLIVLLALFAAGYFFRKKIYAEIDRLESWKIEILNRSIVEEMSKIKHLKMTGQTEEFFEKWREEWDEIVTAHMPKVEELLYDAEENADKYRFKKANQVLVHIDDLLTAAESSIEKILREISDLVTSEEKSREEIEQVRERYSKSRKNLLAYSHLYGELYDSLEKDLDEIWSGIKQFEEETEGGNYITARKVLLEQDRNLERLQSYIDDVPKLLADCKQTVPGQIAKLKDGYGEMKEKGYKLEHIQLDKELENLSNQLKRAEHVLMTELDIDEASAILQLIDENIQSVYQQLEGEVEAGQSVLSKMPELIIAYDKLKEEKEHTKAETELVKESYRLTAGELGKQQAFEKRLDEIGKLLSSVKDKLDAEHVAYSLLVEEVASIEKQIEEVKKEHAEYRENLQALRKEELQARETLSNLKKTISETARLLKTSNIPGIPSHIQEMLENAHHHIQETVNQLNELPLNMEEAGAHLKQAEDIVNRASRESEELVEQVILIEKIIQFGNRFRSQNHILSEQLKEAERRFYAFDYDDSYEIAAAAVEKAAPGAVEKIKADISA
For B5, the binding entry in test [1] was “binds”.
